Patent publication US6608082B1, “Treatment of erectile dysfunction using isoquinoline compound melanocortin receptor ligands” (Lion Bioscience AG, priority 1998, dated 2003)

The chains behind the UniProt entries cited, without tags or fusion partners.
UniProt Q01726, whole entry: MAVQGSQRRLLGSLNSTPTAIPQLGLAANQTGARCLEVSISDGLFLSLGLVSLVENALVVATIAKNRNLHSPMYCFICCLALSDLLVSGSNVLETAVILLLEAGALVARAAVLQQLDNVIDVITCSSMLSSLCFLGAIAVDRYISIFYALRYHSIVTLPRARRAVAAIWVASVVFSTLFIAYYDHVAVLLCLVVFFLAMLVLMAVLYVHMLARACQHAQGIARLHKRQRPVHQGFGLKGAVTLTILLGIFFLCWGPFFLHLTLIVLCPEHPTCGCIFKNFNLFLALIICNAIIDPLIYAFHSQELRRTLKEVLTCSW
UniProt P32245, whole entry: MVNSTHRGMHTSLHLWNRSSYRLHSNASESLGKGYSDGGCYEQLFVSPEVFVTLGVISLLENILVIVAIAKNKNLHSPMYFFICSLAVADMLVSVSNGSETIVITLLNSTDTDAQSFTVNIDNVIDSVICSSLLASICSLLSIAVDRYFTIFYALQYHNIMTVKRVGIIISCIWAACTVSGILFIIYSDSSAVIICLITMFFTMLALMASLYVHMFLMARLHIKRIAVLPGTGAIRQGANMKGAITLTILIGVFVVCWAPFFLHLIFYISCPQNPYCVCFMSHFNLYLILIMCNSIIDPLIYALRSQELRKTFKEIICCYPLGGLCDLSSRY

Legend:
MCR-1 = MCR-1 (Homo sapiens, UniProt Q01726); experiment: Melanocortin receptor binding assay, competition with 125I-HP 467, HEK 293 cells expressing hMCR-1; conditions: for IC50: read-out: MC-1 IC50, TRG 2408 and TRG 2409 libraries, inhibition of 125I-HP 467 binding
MCR-4 = MCR-4 (Homo sapiens, UniProt P32245); experiment: Melanocortin receptor binding assay, competition with 125I-HP 467, HEK 293 cells expressing hMCR-4; conditions: for IC50: read-out: MC-4 IC50, TRG 2408 and TRG 2409 libraries, inhibition of 125I-HP 467 binding

MC-1 IC50 (MCR-1; TRG 2414 library, inhibition of binding of 125I-HP 467, HEK 293 cells expressing MCR-1) | MC-4 IC50 (MCR-4; TRG 2414 library, inhibition of binding of 125I-HP 467, HEK 293 cells expressing MCR-4) | IC50 (MCR-1) [µM] | IC50 (MCR-4) [µM] | SMILES
no fit | no fit |  |  | COc1ccc(CCNC(=O)C2c3ccccc3C(=O)N(CCCC[C@H](NC(=O)c3ccccc3)C(N)=O)C2c2ccc(Cl)cc2Cl)cc1 (some centres unmarked)
 |  | 0.89 | 27.9 | CCNc1ccc(C2C(CNCc3ccccc3O)c3ccccc3CN2CCC[C@@H](CN)NC)cc1 (some centres unmarked)
 |  | 0.71 | 38.2 | CCNc1ccc(C2C(CNCc3ccccc3O)c3ccccc3CN2CCC[C@H](N)CN)cc1 (some centres unmarked)
 |  | 4.76 | 11.7 | NC[C@@H](CCCCN1Cc2ccccc2C(CNCc2ccccc2O)C1c1ccc(Cl)cc1Cl)NCCc1ccccc1 (some centres unmarked)

The match of structure and compound is tentative.
